In test [1] the target is cystic fibrosis transmembrane conductance regulator (CFTR) (human (endogenous in Calu-3)) (UniProt P13569). The test is described as follows: co-IP; endogenous proteins from lysates of polarized Calu-3 cells; IP buffer 150 mM NaCl, 50 mM Tris pH 7.4, 1% IGEPAL, 5 mM MgCl2, 5 mM EDTA, 1 mM EGTA; CFTR precipitated with mouse M3A7, LMTK2 with rabbit anti-LMTK2 kinase domain antibody, on protein G- or protein A-Sepharose; non-immune mouse or rabbit IgG as controls; Western blot. (Immunoblotting shows a protein as a band on a membrane.)

The chains behind the UniProt entries cited, without tags or fusion partners.
UniProt P13569: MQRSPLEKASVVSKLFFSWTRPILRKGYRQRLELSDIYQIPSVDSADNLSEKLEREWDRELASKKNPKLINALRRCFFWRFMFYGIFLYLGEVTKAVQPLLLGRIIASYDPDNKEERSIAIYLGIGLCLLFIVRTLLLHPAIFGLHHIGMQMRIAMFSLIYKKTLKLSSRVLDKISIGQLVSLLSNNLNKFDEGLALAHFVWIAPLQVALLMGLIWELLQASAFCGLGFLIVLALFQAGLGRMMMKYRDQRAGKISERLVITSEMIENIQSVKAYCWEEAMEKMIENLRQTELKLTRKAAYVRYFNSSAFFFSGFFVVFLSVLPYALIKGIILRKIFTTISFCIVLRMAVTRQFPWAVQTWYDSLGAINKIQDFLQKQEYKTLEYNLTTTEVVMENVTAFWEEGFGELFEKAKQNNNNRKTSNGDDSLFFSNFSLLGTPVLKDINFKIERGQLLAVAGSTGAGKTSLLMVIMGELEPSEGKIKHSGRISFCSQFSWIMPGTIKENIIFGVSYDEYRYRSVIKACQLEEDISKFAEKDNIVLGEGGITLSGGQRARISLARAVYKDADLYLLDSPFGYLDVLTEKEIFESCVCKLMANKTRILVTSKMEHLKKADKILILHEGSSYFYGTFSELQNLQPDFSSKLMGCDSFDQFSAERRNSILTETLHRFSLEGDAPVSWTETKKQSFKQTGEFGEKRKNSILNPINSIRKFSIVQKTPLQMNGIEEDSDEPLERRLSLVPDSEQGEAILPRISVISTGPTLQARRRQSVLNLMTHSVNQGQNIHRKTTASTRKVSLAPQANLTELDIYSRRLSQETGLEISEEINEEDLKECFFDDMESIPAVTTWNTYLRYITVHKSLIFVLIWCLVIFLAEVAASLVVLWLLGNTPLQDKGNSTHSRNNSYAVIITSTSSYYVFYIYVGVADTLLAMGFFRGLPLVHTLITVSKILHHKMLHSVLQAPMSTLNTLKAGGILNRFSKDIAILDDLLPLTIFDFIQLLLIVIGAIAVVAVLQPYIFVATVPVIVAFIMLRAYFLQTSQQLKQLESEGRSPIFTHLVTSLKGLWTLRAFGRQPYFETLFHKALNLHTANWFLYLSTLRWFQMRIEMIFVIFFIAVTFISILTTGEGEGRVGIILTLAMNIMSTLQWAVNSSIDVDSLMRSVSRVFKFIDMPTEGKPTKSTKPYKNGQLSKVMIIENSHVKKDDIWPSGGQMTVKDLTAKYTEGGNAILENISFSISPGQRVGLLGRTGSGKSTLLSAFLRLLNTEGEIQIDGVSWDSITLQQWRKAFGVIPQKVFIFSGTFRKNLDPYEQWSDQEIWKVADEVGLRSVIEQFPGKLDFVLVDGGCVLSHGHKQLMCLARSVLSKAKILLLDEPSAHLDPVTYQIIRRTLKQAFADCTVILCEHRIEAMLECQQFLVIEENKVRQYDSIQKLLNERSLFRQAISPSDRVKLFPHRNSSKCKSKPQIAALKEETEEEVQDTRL
UniProt Q8IWU2: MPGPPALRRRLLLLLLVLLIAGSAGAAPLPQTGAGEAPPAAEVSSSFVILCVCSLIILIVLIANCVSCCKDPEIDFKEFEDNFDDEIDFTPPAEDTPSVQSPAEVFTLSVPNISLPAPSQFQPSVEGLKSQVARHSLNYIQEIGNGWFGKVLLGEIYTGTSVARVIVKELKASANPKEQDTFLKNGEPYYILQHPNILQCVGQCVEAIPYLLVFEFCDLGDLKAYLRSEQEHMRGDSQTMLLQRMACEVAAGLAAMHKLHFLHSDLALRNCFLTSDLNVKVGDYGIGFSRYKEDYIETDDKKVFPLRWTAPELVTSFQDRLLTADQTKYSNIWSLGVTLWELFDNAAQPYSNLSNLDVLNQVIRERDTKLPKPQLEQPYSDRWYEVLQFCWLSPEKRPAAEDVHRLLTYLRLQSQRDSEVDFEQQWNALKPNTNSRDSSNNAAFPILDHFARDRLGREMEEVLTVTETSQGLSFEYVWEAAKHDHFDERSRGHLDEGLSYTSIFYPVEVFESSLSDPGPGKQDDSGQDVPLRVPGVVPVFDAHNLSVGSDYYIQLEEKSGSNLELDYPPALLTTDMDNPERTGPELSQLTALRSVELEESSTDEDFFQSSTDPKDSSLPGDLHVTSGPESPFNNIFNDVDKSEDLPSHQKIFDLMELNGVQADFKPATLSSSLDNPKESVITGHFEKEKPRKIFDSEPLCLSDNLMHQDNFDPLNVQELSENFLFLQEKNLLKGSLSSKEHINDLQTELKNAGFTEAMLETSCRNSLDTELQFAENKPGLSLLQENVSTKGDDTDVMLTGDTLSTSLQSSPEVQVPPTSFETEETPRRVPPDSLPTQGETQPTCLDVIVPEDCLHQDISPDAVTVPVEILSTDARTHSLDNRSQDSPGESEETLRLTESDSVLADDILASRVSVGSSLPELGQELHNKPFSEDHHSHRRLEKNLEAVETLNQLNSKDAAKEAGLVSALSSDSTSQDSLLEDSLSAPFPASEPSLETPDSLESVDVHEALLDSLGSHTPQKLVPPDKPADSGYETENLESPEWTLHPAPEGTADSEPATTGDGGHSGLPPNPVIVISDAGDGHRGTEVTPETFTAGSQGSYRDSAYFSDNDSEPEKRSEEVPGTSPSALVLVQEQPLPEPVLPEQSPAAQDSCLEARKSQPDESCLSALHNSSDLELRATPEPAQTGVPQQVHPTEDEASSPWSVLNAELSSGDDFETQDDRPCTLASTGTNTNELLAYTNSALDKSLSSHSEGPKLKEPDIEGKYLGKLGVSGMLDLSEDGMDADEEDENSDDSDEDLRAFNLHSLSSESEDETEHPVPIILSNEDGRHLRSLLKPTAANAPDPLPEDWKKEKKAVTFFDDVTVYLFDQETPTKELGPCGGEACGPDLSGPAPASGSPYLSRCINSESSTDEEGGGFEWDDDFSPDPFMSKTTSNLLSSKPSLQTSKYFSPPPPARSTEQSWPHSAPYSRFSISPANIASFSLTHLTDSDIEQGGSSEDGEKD

Test [2] deals with Lemur tyrosine kinase 2 (LMTK2) (human (endogenous in Calu-3)) (UniProt Q8IWU2). Described as above.

No constants are given. Whether binding was seen depends on the method and setting. Binding seen in cells or lysates may run through a third protein. Some binding calls cover weakened binding; strength is not graded here.

Turning to “Lemur tyrosine kinase 2 (LMTK2) (from UniProt Q8IWU2 1-1503) (enzyme)”, the binding result in test [1] is listed as “binds”.

As for “cystic fibrosis transmembrane conductance regulator (CFTR) (from UniProt P13569 1-1480)”, the binding result in test [2] was “binds”.

The record behind these values is PMC4031558.
